Laboratory results published in the supplement of paper PMC12823440, “Inhibitors supercharge kinase turnover through native proteolytic circuits” (Nature, 2025).
Structures can show the parent of a compound that is named as a salt. Some of the results follow. The calls rarely recur for the same compound in another form.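 Kinases, fused to nanoluciferase, were expressed in K562 cells; luminescence was measured every 4 h from 2 to 18 h as percent of control (DMSO = 100%, positive control = 0%). A time point is decreased if signal falls significantly (2 sigma). Hits were called by the authors by a rule that is not shown; the count of time points alone does not decide it.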

By UniProt entry, the sequences of proteins in these tests, tags left out. Where a name states a change or a piece, a line headed by the entry shows the natural chain unless it says otherwise.
UniProt Q6PHR2: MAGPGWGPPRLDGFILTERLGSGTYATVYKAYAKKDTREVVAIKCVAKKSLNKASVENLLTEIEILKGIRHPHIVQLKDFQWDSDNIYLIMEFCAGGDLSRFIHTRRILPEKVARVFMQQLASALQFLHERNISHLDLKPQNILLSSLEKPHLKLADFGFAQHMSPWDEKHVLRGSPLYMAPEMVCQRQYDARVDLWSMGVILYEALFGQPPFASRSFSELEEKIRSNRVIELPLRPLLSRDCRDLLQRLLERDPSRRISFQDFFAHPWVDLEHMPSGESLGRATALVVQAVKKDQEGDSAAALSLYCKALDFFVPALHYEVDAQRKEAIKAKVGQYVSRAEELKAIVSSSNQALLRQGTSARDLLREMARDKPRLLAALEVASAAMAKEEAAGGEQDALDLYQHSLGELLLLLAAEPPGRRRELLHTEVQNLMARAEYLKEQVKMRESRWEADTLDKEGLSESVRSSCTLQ

molecular target: ULK3 (UniProt Q6PHR2); test: number of time points (of 5) at which kinase-Nluc abundance scored as decreased, DMSO-normalised (count); higher = more persistent destabilization; details: K562; 2-18 h

Row | SMILES | number of time points
1 | Nc1nc2cc(-c3ccc4ncc(C(=O)N5CCOCC5)n4c3)ccc2o1 [Serabelisib] (10 µM) | 0
2 | OCCN(CCO)c1ccc(C(c2ccc(Cl)cc2)c2ccc(N(CCO)CCO)cc2)cc1 (10 µM) | 3
3 | O=c1nc(N2CCOCC2)oc2c(-c3cccc4c3sc3ccccc34)cccc12 (10 µM) | 0
4 | c1ccc(-c2nn3c(c2-c2ccnc4cc(OCCN5CCOCC5)ccc24)CCC3)nc1 (10 µM) | 0
5 | O=C(Nc1ccc(Cl)c(Cl)c1)Nc1ccc2nnsc2c1 (10 µM) | 0
6 | N#C/C(=C(/N)Sc1ccc(N)cc1)c1ccccc1C(F)(F)F (10 µM) | 0
7 | O=c1ccoc2cc(O)ccc12 [7-Hydroxy-4H-chromen-4-one] (10 µM) | 0
8 | COc1cc(C(=O)N2CCC(N3CCN(C)CC3)CC2)ccc1Nc1ncc2c(n1)N(C)c1ccccc1C(=O)N2C (10 µM) | 0
9 | CC(=O)Nc1nc2ccc(-c3cnc(C)c(NC(=O)OC4CCCCC4)c3)cc2s1 (10 µM) | 0
10 | O=C1NC(=O)C(c2cn(-c3ccccc3)nc2-c2ccc(F)cc2)N1 (stereo unspecified) (10 µM) | 0
11 | CCCCNC(=N)NC(=N)N [Buformin (hydrochloride)] (2.5 µM) | 0
12 | C[C@H]1[C@H](OC(=O)CCC(=O)O)O[C@@H]2O[C@@]3(C)CC[C@H]4[C@H](C)CC[C@@H]1[C@@]24OO3 [Artesunate] (2.5 µM) | 0
13 | COc1ncc(Nc2ncc([C@@H](C)N3CCN(S(C)(=O)=O)CC3)cc2-c2nc(C)nc(N)n2)cc1F (10 µM) | 0
14 | COC1(C(=O)N[C@@H](C)c2ccc(-n3cc(F)cn3)nc2)CCC(c2nc(C)cc(Nc3cc(C)[nH]n3)n2)CC1 (stereo partly drawn) [trans-Pralsetinib] (2.5 µM) | 0
15 | CC(=O)NCCc1c[nH]c2ccc(O)cc12 [N-Acetyl-5-hydroxytryptamine] (10 µM) | 0
16 | O=[N+]([O-])c1ccc(Sc2cccc[n+]2[O-])c2nonc12 (2.5 µM) | 0
17 | COc1ccc(CNc2nc(N(CCO)CCO)nc3c2ncn3C(C)C)cc1 (2.5 µM) | 0
18 | CC(CCc1ccccn1)(CCc1ccccn1)C(=O)c1ccccc1 (10 µM) | 0
19 | [O-][n+]1cccc(-c2nc3c(Cl)cccc3cc2[C@@H](Nc2ncnc3cccnc23)C(F)(F)F)c1 [Seletalisib] (10 µM) | 0
20 | Cc1cc2cc(Oc3ccnc(Nc4cccc(CS(=O)(=O)NCCN(C)C)c4)n3)ccc2[nH]1 [Sulfatinib] (10 µM) | 1
21 | O=C1NC(=O)C(c2cnc3ccccn23)=C1c1cn2c3c(cc(F)cc13)CN(C(=O)N1CCCCC1)CC2 (2.5 µM) | 0
22 | Cc1ccc(-c2ncn(-c3ccc(Nc4nccc(-c5cccc(N6CCOCC6)c5)n4)cc3)n2)cn1 (10 µM) | 0
23 | COc1ccc2c(c1OC)OC1c3ccc(O)cc3OCC21 (stereo unspecified) [Methylnissolin] (10 µM) | 0
24 | Cn1cc(-c2ccc3nnc(C(F)(F)c4ccc5ncccc5c4)n3n2)cn1 (10 µM) | 0
25 | Nc1ncc(-c2ccc(C(=O)N3CCNCC3)cc2)nc1-c1ccc(C(F)(F)F)cc1 (10 µM) | 0
26 | CN(C)Cc1cccc(N=C(c2ccccc2)c2c(O)[nH]c3cc(C(=O)N(C)C)ccc23)c1 (10 µM) | 0

2 compounds drawn at random from the list so far, as already listed:
Row | SMILES | number of time points
2 | OCCN(CCO)c1ccc(C(c2ccc(Cl)cc2)c2ccc(N(CCO)CCO)cc2)cc1 (10 µM) | 3
23 | COc1ccc2c(c1OC)OC1c3ccc(O)cc3OCC21 (stereo unspecified) [Methylnissolin] (10 µM) | 0
